Measured values as given in the supplement of paper PMC7024190.
Where a name gives a salt, the structure may show the parent alone. The list shows a part of the results. This data set is noisy: repeats of one test often differ as much as different tests do.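 A first-round screen of about ten thousand compounds sought those raising reporter output, using human embryonic kidney cells briefly transfected with a plasmid carrying a Renilla luciferase gene driven by the HSV-TK promoter.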

tested on: HEK 293FT; assay: log relative Renilla luciferase luminescence (reporter expression vs reference, reference not stated) (log (base not stated)); higher = higher recombinant reporter expression; conditions: 10 µM; time after transfection 48 h

Structure (SMILES)	log
C=C(NC(=O)C(=C)NC(=O)c1csc(C2=N[C@@H]3c4csc(n4)[C@H]4NC(=O)c5csc(n5)[C@H]([C@](C)(O)[C@@H](C)O)NC(=O)[C@H]5CSC(=N5)/C(=C/C)NC(=O)[C@H]([C@@H](C)O)NC(=O)c5csc(n5)[C@]3(CC2)NC(=O)[C@H](C)NC(=O)C(=C)NC(=O)[C@H](C)NC(=O)[C@H]([C@@H](C)CC)N[C@@H]2C=Cc3c([C@H](C)O)cc(nc3[C@H]2O)C(=O)O[C@@H]4C)n1)C(N)=O [thiostrepton]	-0.563
Cn1c(=O)c2c(ncn2CC(O)CO)n(C)c1=O (configuration not stated) [dyphylline]	-0.243
CCCc1nc(C(C)(C)O)c(C(=O)OCc2oc(=O)oc2C)n1Cc1ccc(-c2ccccc2-c2nnn[nH]2)cc1 [olmesartan medoxomil]	-0.054
NC(=O)c1cccnc1 [niacinamide]	0.00906
Nc1nccs1 [aminothiazole]	-0.109
COc1cc(C)c2c(=O)cc(-c3ccccc3)oc2c1 [methoxyvone]	-0.152
CC(C)(Oc1ccc(C2CC2(Cl)Cl)cc1)C(=O)O (configuration not stated) [ciprofibrate]	0.044
CC1=C(C(=O)O)N2C(=O)[C@@H](NC(=O)[C@H](N)c3ccc(O)cc3)[C@H]2SC1 [cefadroxil]	-0.116
OC[C@H]1O[C@@H](O[C@H]2[C@H](O)[C@@H](O)[C@@H](O)O[C@@H]2CO)[C@H](O)[C@@H](O)[C@@H]1O [cellobiose (d[+])]	0.145
CC[C@]1(O)C[C@@H]2CN(CCc3c([nH]c4ccccc34)[C@@](C(=O)OC)(c3cc4c(cc3OC)N(C)[C@H]3[C@@](O)(C(=O)OC)[C@H](OC(C)=O)[C@]5(CC)C=CCN6CC[C@]43[C@@H]65)C2)C1 [vinblastine sulfate]	-0.172
C=C1CC=C(C)CC[C@@H]2[C@@H]1CC2(C)C [caryophyllene [t(-)]]	0.105
CCN(CCCc1ccccc1)CCCc1ccccc1 [alverine citrate]	-0.0348
CCCCC(CC)COC(=O)c1ccccc1O (configuration not stated) [octisalate]	0.0328
CC(=O)[C@H]1CC[C@H]2[C@@H]3CC=C4C[C@@H](OC(=O)CCC(=O)O)CC[C@]4(C)[C@H]3CC[C@]12C [pregnenolone succinate]	-0.068
CC(CCc1ccc(O)cc1)NCC(O)c1ccc(O)cc1 (configuration not stated) [ractopamine hydrochloride]	-0.0892
O=P(O)(O)C(O)(Cc1cccnc1)P(=O)(O)O [risedronate sodium]	-0.0406
COc1ccc(-n2nc(CCC(=O)N(C)O)cc2-c2ccc(Cl)cc2)cc1 [tepoxalin]	-0.682

As a working copy, two of the compounds above:
Structure (SMILES)	log
CC(CCc1ccc(O)cc1)NCC(O)c1ccc(O)cc1 (configuration not stated) [ractopamine hydrochloride]	-0.0892
O=P(O)(O)C(O)(Cc1cccnc1)P(=O)(O)O [risedronate sodium]	-0.0406
